Measurements taken from BigSolDB 2.1.

CN(C)C(=N)N=C(N)N.Cl
solubility (mole fraction)
Conditions | 283.15 K | 288.15 K | 293.15 K | 298.15 K | 303.15 K | 308.15 K | 313.15 K | 318.15 K | 323.15 K
in ethanol | 0.0013 | 0.00147 | 0.0016 | 0.00183 | 0.00212 | 0.00225 | 0.00245 | 0.00275 | 0.00343
in methanol | 0.00898 | 0.01 | 0.0114 | 0.0127 | 0.0141 | 0.0157 | 0.0175 | 0.0229 | 0.0226
in water | 0.0292 | 0.0338 | 0.0378 | 0.0419 | 0.0473 | 0.0514 | 0.0574 | 0.0626 | 0.0683
